Structures can show the parent of a compound that is named as a salt. ± gives the standard deviation of the averaged measurements. Some of the results follow. The data scatter; read single values as rough.

The results in this text go back to the supplement of paper PMC7238544.

The subject of this test is hAMSC donor 2. As to the kind of experiment: transfection efficiency (EGFP+ cells / Hoechst count) fold change vs vehicle control (ratio); hAMSC are human adipose-derived mesenchymal stem cells given an EGFP-luciferase plasmid by lipofection; higher = enhanced transfection. Conditions: priming compound concentration 1.7 µM.
For `CN(CCOc1ccc(CC2SC(=O)NC2=O)cc1)c1ccccn1` (centres undefined) [Rosiglitazone maleate], the transfection efficiency was 0.751 ± 0.017.
With `C[C@](N)(Cc1ccc(O)cc1)C(=O)O` [alpha-Methyl-L-tyrosine], the transfection efficiency was determined as 0.901 ± 0.049.
The figure for `COc1cc(OC)c(C(=O)CCCN2CCCC2)c(OC)c1` [Buflomedil hydrochloride] is 1.14 ± 0.069; for `COCCOC(=O)C1=C(C)NC(C)=C(C(=O)OC(C)C)C1c1cccc([N+](=O)[O-])c1` (centres undefined) [Nimodipine] it is 0.895 ± 0.025.
As for `O=C(CCCN1CC=C(n2c(=O)[nH]c3ccccc32)CC1)c1ccc(F)cc1` [Droperidol], the transfection efficiency came out at 1.15 ± 0.18.
The figure for `CN1[C@@H]2CC[C@H]1C[C@@H](OC(=O)c1c[nH]c3ccccc13)C2` [Tropisetron hydrochloride] is 0.943 ± 0.086; for `CN1[C@@H](CC(=O)c2ccccc2)CCC[C@H]1C[C@H](O)c1ccccc1` [Lobeline hydrochloride] it is 1.28 ± 0.18; for `CN(C)CCCC1(c2ccc(F)cc2)OCc2cc(C#N)ccc21` (centres undefined) [Citalopram hydrobromide] it is 0.865 ± 0.16.
With `CN(C)CCc1c[nH]c2ccc(Cn3cncn3)cc12` [Rizatriptan benzoate] the figure was 0.952 ± 0.084; with `Nc1ncn([C@@H]2O[C@H](CO)[C@@H](O)[C@H]2O)c(=O)n1` [5-Azacytidine], 0.836 ± 0.054.
The figure for `O=C(O)CCc1nc(-c2ccccc2)c(-c2ccccc2)o1` [Oxaprozin] is 0.771 ± 0.27.
`CN1CC(=O)N2[C@H](c3ccc4c(c3)OCO4)c3[nH]c4ccccc4c3C[C@@H]2C1=O` [Tadalafil]: the transfection efficiency is 0.768 ± 0.047.
On to `O=c1c(O[C@@H]2O[C@H](CO)[C@@H](O)[C@H](O)[C@H]2O)c(-c2ccc(O)c(O)c2)oc2cc(O)cc(O)c12` [Isoquercitrin], for which the transfection efficiency stood at 0.834 ± 0.12.
Consider `CN(C)[C@@H]1C(O)=C(C(N)=O)C(=O)[C@@]2(O)C(O)=C3C(=O)c4c(O)ccc(Cl)c4[C@@H](O)[C@H]3C[C@@H]12` [Demeclocycline], for which the transfection efficiency amounted to 0.742 ± 0.035.
With `OCCN1CCN(CCCN2c3ccccc3Sc3ccc(C(F)(F)F)cc32)CC1` [Fluphenazine dihydrochloride] the figure was 0.963 ± 0.17.
With `CCN(CC)CCOc1ccc(C(=C(Cl)c2ccccc2)c2ccccc2)cc1` [Clomifene citrate] the figure was 0.965 ± 0.11; with `N#Cc1ccc(C(c2ccc(C#N)cc2)n2cncn2)cc1` [Letrozole], 0.974 ± 0.13; with `COc1cc([C@@H]2c3cc4c(cc3[C@@H](O[C@@H]3O[C@@H]5CO[C@@H](C)O[C@H]5[C@H](O)[C@H]3O)[C@H]3COC(=O)[C@H]23)OCO4)cc(OC)c1O` [Etoposide], 1.08 ± 0.26.
Take `C[C@]12C[C@H](O)[C@H]3[C@@H](CCC4=CC(=O)CC[C@@]43C)[C@@H]1CC[C@@H]2C(=O)CO` [Corticosterone]: the transfection efficiency came to 1.29 ± 0.27.
With `CCN1CCCC1CNC(=O)c1cc(S(=O)(=O)CC)c(N)cc1OC` (centres undefined) [Amisulpride] the figure was 0.88 ± 0.041.
The figure for `CN(C)CC[C@@H](c1ccc(Br)cc1)c1ccccn1` [Dexbrompheniramine maleate] is 0.97 ± 0.057.
With `CC1=C(C/C=C(\C)CCC[C@H](C)CCC[C@H](C)CCCC(C)C)C(=O)c2ccccc2C1=O` [Phylloquinone] the figure was 0.781 ± 0.09.
With `C[C@H](CS)C(=O)N1CCC[C@H]1C(=O)O` [Captopril], the transfection efficiency is 0.651 ± 0.02.
The figure for `c1ccc2c(CC3=NCCN3)cccc2c1` [Naphazoline hydrochloride] is 0.823 ± 0.27; for `C[C@H]1O[C@@H](O[C@H]2[C@@H](O)C[C@H](O[C@H]3[C@@H](O)C[C@H](O[C@H]4CC[C@@]5(C)[C@H](CC[C@@H]6[C@@H]5C[C@@H](O)[C@]5(C)[C@@H](C7=CC(=O)OC7)CC[C@]65O)C4)O[C@@H]3C)O[C@@H]2C)C[C@H](O)[C@@H]1O` [Digoxin] it is 0.648 ± 0.15.
The figure for `CC#C[C@]1(O)CC[C@H]2[C@@H]3CCC4=CC(=O)CCC4=C3[C@@H](c3ccc(N(C)C)cc3)C[C@@]21C` is 1.35 ± 0.095; for `COc1ccccc1N1CCN(CC(O)COc2cccc3ccccc23)CC1` (centres undefined) [Naftopidil] it is 1.33 ± 0.18.
The figure for `CN1CCN(c2nc3cc(C(F)(F)F)ccc3n3cccc23)CC1` is 1.15 ± 0.093.
Consider `CC(C)[C@H](N)C(=O)OCCOCn1cnc2c(=O)nc(N)[nH]c21` [Valaciclovir hydrochloride], for which the transfection efficiency turned out to be 0.81 ± 0.029.
As for `O=c1[nH]cc(F)c(=O)[nH]1` [5-Fluorouracil], the transfection efficiency was 0.933 ± 0.079.
Turning to `CC1(C)S[C@@H]2[C@H](NC(=O)[C@H](N)c3ccc(O)cc3)C(=O)N2[C@H]1C(=O)O` [Amoxicillin], the transfection efficiency was 0.876 ± 0.059.
With `CN1CCC[C@H]1c1cccnc1` [Nicotine] the figure was 0.978 ± 0.035; with `CC1(C)O[C@@H]2[C@@H](CO[C@@]3(COS(N)(=O)=O)OC(C)(C)O[C@@H]23)O1` [Topiramate], 1.05 ± 0.16.
With `Nc1ncnc2c1ncn2[C@@H]1O[C@H](CO)C[C@@H]1O` [3'-Deoxydenosine] the figure was 1.13 ± 0.35; with `O=C1c2c(O)cc(O)cc2O[C@H](c2ccc(O)c(O)c2)[C@H]1O` (racemic) [Taxifolin-(+/-)], 1.15 ± 0.26.
The figure for `O=C(c1ccccc1)c1ccc2n1CCC2C(=O)O` (centres undefined) [Ketorolac tromethamine] is 0.851 ± 0.065; for `CC(=O)N[C@H]1[C@H]([C@H](O)[C@H](O)CO)OC(C(=O)O)=C[C@@H]1NC(=N)N` [Zanamivir hydrate] it is 0.907 ± 0.044; for `CCOc1cc(CC(=O)N[C@@H](CC(C)C)c2ccccc2N2CCCCC2)ccc1C(=O)O` [Repaglinide] it is 1.19 ± 0.19.
As for `CCn1cc(C(=O)O)c(=O)c2cc(F)c(N3CCN(C)CC3)cc21` [Pefloxacin mesylate], the transfection efficiency is 1.15 ± 0.085.
